Target: T1, rec-MgaCA (Mytilus galloprovincialis, UniProt A0A0N9FGL8)
T1 construct: gene CAII
Settings: CO2 1.7-17 mM; 10-20 mM TRIS pH 8.3; 20 mM Na2SO4; 15 min pre-incubation at room temperature; Cheng-Prusoff

The chains behind the UniProt entries cited, without tags or fusion partners. Residues count along the entry.
UniProt A0A0N9FGL8, 2-256: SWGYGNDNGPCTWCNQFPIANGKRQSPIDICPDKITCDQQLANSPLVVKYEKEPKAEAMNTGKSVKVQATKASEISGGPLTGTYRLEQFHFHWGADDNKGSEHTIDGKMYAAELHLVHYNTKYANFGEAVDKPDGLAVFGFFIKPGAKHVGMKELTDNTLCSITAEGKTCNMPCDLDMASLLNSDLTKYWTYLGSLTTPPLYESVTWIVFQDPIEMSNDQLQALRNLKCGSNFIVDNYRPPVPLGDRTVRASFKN

CC(=O)Nc1nnc(S(N)(=O)=O)s1 [AAZ, acetazolamide]
KI (acetazolamide) (nM): 361 ± 5% nM

Source: PMC6010101, “Cloning, expression and purification of the α-carbonic anhydrase from the mantle of the Mediterranean mussel, Mytilus galloprovincialis” (Journal of Enzyme Inhibition and Medicinal Chemistry, 2017)
